Measured values taken from PubChem BioAssay AID1457 (National Center for Advancing Translational Sciences (NCATS), 2008).
The list shows a part of the results, in another mix than the full data. Active and inactive are the calls of the source. Calls come from the whole dose curve; as a rule, active = well fitted inhibition curve with a large enough effect; inconclusive = small, poorly fitted or top-dose-only effect; inactive = no such curve, though single readings can be large or run the other way.

Test: qHTS Assay for Identifying the Cell-Membrane Permeable IMPase Inhibitors: Potentiation with Lithium;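 note: IP1 builds up when IMPase is blocked and the TR-FRET signal falls; plate controls were basal vehicle for no effect and high inhibitor control for full effect; nearly all actives have a fitted effect of over 50% in size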
Conditions: CHO-M1 cells, IP1 TR-FRET (IP-One), carbachol + lithium; at 59.4 µM (top of the series)
Description: NIH Chemical Genomics Center [NCGC]
NIH Molecular Libraries Probe Production centers Network [MLPCN]
Assay Submitter (PI): Wei Zheng
Lithium has been widely used for the treatment of bipolar disorder. But lithium has a narrow therapeutic index and it can cause side effects such as thirst, weight gain, tremor, polyuria and memory problems. Although the mechanism for lithium action in treatment of bipolar disorder is still not fully understood, inhibition of inositol monophosphatase (IMPase) and the subsequent depletion of the inositol pool in living cells have been implicated as the primary therapeutic benefit of lithium therapy. […]
To identify new cell-permeable IMPase inhibitors, we developed a cell-based IMPase assay in which the cytosolic IP1 is measured by a time-resolved fluorescence resonance energy transfer (TR-FRET) assay. […]
A Chinese hamster ovary (CHO) cell line stably expressing the M1 receptor (CHO-M1) was obtained from ATCC and maintained in F-12 Kaighn's media (Invitrogen, Carlsbad, CA) supplemented with 10 % FBS, 100 units/ml penicillin, 100 ug/ml streptomycin and 250 ug/ml geneticin at 37C, 5% CO2 in a humidified atmosphere. […] AC50 values were determined from concentration-response data modeled with the standard Hill equation. […]
(7) Detect the assay plate (Ex = 320, Em1 =665 and Em2 620) in a ViewLux plate reader.

| Compound | activity, negative = IMPase inhibition |
| --- | --- |
| CC(C)=CCC[C@]1(C)[C@@H](CC=C(C)C)C[C@@]2(CC=C(C)C)C(=O)[C@]1(C(=O)C(C)C)C(=O)C(CC=C(C)C)=C2O | inactive: 20.5% |
